PubChem BioAssay AID1259254 – NCATS, 2017
This is a random part of about 59,000 reagents tested. About 1,550 of all reagents (2.6%) were called active. 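G2 share is only a proxy for re-replication; each gene was hit by three separate siRNAs, and active genes were retested.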 Unmarked entries are inactive. Reagents against one gene are numbered here. Not all columns of the deposit are shown. Not given: the amount of reagent.

- Test: 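Gene knock-downs that lead to re-replication, shown by excess G2 DNA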 (primary screen)
- System: human HCT116 colorectal cancer cells
- Knock-down reagent: single siRNA against human genes
- Duration: 3 days
- Read-out: 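Nuclei stained with Hoechst and imaged; cell-cycle phase assigned by DNA content; G2 share scaled per plate, non-targeting siRNA 0%, GMNN siRNA 100%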
- Direction: G2 robust z-score and G2 cells, % of GMNN control: higher = more G2 cells, more excess DNA replication
- Call rule: 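Active siRNAs have a G2 robust z of 5 or more median absolute deviations over the median, which in these data means about 38% or higher of GMNN control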

LILRB2 (leukocyte immunoglobulin like receptor B2) #1
- G2 robust z-score: 0.307
- G2 cells, % of GMNN control: 5.13

LILRB2 (leukocyte immunoglobulin like receptor B2) #2
- G2 robust z-score: 2.03
- G2 cells, % of GMNN control: 17.3

LILRB2 (leukocyte immunoglobulin like receptor B2) #3
- G2 robust z-score: -0.797
- G2 cells, % of GMNN control: -2.64

HPS6 (HPS6 biogenesis of lysosomal organelles complex 2 subunit 3) #1
- G2 robust z-score: -0.0965
- G2 cells, % of GMNN control: 2.29

HPS6 (HPS6 biogenesis of lysosomal organelles complex 2 subunit 3) #2
- G2 robust z-score: -0.522
- G2 cells, % of GMNN control: -0.708

HPS6 (HPS6 biogenesis of lysosomal organelles complex 2 subunit 3) #3
- G2 robust z-score: -0.202
- G2 cells, % of GMNN control: 1.54

KIF3A (kinesin family member 3A) #1
- G2 robust z-score: -1.17
- G2 cells, % of GMNN control: -5.29

KIF3A (kinesin family member 3A) #2
- G2 robust z-score: -0.484
- G2 cells, % of GMNN control: -0.441

KIF3A (kinesin family member 3A) #3
- G2 robust z-score: -0.455
- G2 cells, % of GMNN control: -0.236

ZDHHC18 (zDHHC palmitoyltransferase 18) #1
- G2 robust z-score: 2.05
- G2 cells, % of GMNN control: 17.4

ZDHHC18 (zDHHC palmitoyltransferase 18) #2
- G2 robust z-score: 0.335
- G2 cells, % of GMNN control: 5.32

ZDHHC18 (zDHHC palmitoyltransferase 18) #3
- G2 robust z-score: 4.49
- G2 cells, % of GMNN control: 34.5
